In paper PMC5767004, “Inhibitors of the integrase–transportin-SR2 interaction block HIV nuclear import” (Retrovirology, 2018) one finds binding data, which are given here for one molecule.

Sequences of proteins named here, by UniProt entry; tags and fusion partners are left off.
UniProt O75475: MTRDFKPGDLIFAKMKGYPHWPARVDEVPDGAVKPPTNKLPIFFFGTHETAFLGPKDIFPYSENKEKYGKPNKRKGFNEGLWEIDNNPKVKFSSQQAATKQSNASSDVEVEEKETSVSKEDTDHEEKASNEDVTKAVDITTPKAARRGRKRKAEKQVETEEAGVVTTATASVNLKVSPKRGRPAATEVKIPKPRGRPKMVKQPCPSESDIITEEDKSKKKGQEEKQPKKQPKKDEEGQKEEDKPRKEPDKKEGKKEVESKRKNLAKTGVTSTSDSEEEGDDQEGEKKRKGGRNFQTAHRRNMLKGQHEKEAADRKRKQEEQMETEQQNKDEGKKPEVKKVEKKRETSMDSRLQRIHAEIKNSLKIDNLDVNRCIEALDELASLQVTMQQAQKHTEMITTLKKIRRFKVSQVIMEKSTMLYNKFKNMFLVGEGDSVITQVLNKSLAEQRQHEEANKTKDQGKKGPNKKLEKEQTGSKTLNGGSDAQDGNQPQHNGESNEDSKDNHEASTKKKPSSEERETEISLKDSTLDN

No constants are given. Whether binding was seen depends on the method and setting. Some binding calls cover weakened binding; strength is not graded here. Tags and fused reporters may be left off the sequences shown.

In this assay the target is full-length 3xflag-tagged LEDGF/p75 (UniProt O75475). Put plainly: AlphaScreen or HTRF; AlphaScreen; MBP-tagged JPO2 and 3xflag-tagged LEDGF/p75 at 5 nM each; anti-flag acceptor beads and streptavidin donor beads coated with anti-MBP antibody; both purified. On the technique in general: In Alpha technology, singlet oxygen from a donor bead excites a nearby acceptor bead.

B1: maltose-binding protein (MBP)-tagged JPO2 (Cell division cycle-associated 7-like protein, CDCA7L) (protein, UniProt Q96GN5 1-454)
chain: MELATRYQIPKEVADIFNAPSDDEEFVGFRDDVPMETLSSEESCDSFDSLESGKQQDVRFHSKYFTEELRRIFIEDTDSETEDFAGFTQSDLNGKTNPEVMVVESDLSDDGKASLVSEEEEDEEEDKATPRRSRSRRSSIGLRVAFQFPTKKLANKPDKNSSSEQLFSSARLQNEKKTILERKKDCRQVIQREDSTSESEDDSRDESQESSDALLKRTMNIKENKAMLAQLLAELNSMPDFFPVRTPTSASRKKTVRRAFSEGQITRRMNPTRSARPPEKFALENFTVSAAKFAEEFYSFRRRKTIGGKCREYRRRHRISSFRPVEDITEEDLENVAITVRDKIYDKVLGNTCHQCRQKTIDTKTVCRNQGCCGVRGQFCGPCLRNRYGEDVRSALLDPDWVCPPCRGICNCSYCRKRDGRCATGILIHLAKFYGYDNVKEYLESLQKELVEDN
On to B1, for which the binding entry is given as “binds”.
